Experimental data taken from PubChem BioAssay AID1671190 (National Center for Advancing Translational Sciences (NCATS), 2021).
In all, about 580,000 compounds went through this assay and about 6,100 (1.1%) were called active. The shares of active, inactive and inconclusive entries below differ from those in the screen. Calls come from the whole dose curve; as a rule, active = well fitted inhibition curve with a large enough effect; inconclusive = small, poorly fitted or top-dose-only effect, or another doubt; inactive = no such curve, though single readings can be large or run the other way. Where the call is inconclusive, the potency comes from a doubtful curve fit.

Amino acid sequences for entries named in this document (tags omitted). A change or cut given only in a name is not applied to a line headed by its entry.
UniProt P18054: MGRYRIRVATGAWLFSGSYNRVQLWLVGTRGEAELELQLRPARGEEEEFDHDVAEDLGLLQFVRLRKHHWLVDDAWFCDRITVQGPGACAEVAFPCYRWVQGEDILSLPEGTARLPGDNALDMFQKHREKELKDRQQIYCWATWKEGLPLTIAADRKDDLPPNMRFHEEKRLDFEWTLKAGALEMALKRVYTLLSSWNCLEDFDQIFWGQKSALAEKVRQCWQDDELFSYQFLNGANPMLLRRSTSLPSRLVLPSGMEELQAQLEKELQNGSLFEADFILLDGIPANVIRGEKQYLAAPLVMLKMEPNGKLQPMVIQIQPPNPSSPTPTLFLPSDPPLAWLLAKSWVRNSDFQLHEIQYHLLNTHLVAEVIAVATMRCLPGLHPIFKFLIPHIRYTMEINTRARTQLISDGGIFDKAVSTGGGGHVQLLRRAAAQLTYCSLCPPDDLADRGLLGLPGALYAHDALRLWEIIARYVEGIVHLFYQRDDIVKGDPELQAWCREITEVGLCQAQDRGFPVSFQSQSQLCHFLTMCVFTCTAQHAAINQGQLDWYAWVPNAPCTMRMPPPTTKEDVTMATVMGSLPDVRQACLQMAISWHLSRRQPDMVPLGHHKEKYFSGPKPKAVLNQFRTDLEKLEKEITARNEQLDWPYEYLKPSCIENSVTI

Biological target: Polyunsaturated fatty acid lipoxygenase ALOX12 (Homo sapiens) (UniProt P18054)
Experiment: Primary qHTS assay for inhibitors of human arachidonate 12S-lipoxygenase (ALOX12): Round 2
Conditions: purified 12hLO, xylenol orange hydroperoxide absorbance
Outline: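 Purified human 12hLO at 150 nM in 25 mM Hepes, 0.01% Triton X-100, pH 7.0, preincubated 15 min at room temperature with compound. Reaction started with 40 uM arachidonic acid, 30 min at room temperature. Hydroperoxide measured by Fe-xylenol orange, 573/405 nm absorbance ratio.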

[1] = activity change, negative = inhibition: at 108 µM (top of the series) unless noted
% is set by controls: 0 for no effect and ±100 for the full control effect; potency is the fitted concentration of half-maximal effect.

SMILES: O=S(=O)(Nc1nc2ccccc2nc1Nc1ccc(Cl)c(Cl)c1)c1cccs1
- Potency [1]: inactive

SMILES: CSc1ccccc1C(=O)Nc1c(F)cc(F)cc1Br
- Potency [1]: inconclusive: 39.8 µM [inhibitor, partial curve, poor fit]

SMILES: CC(C)C[C@H]1COCCS(=O)(=O)N1Cc1cccc(F)c1
- Potency [1]: inactive

SMILES: CN(C(=O)Cn1c(=O)c2c(ncn2C2CCCC2)n(Cc2ccccc2)c1=O)C1CCS(=O)(=O)C1 (stereo not drawn)
- Potency [1]: inconclusive: 100 µM [inhibitor, single point]

SMILES: O=C(Nc1ccc2c(c1)CCCN2C(=O)c1ccco1)c1cc([N+](=O)[O-])ccc1Cl
- Potency [1]: inconclusive: 50.1 µM [inhibitor, partial curve, poor fit]

SMILES: O=C(Nc1ccccc1)Nc1cccc(C(F)(F)F)c1
- Potency [1]: inactive

SMILES: O=C(N/N=C/C=C/c1ccc2c(c1)OCO2)c1ccc([N+](=O)[O-])cc1
- Potency [1]: inactive

SMILES: Cc1c(-c2ccc(Cl)cc2)n[nH]c1C(=O)N[C@@H]1CCNC[C@H]1O
- Potency [1]: inconclusive: 14.1 µM [inhibitor, full curve]

SMILES: Nc1cnn(Cc2ccc(F)cc2)c1
- Potency [1]: inconclusive: 35.5 µM [inhibitor, partial curve, poor fit]

SMILES: CC(C)C(=O)N1CCN(c2nc3c(s2)CC(C(=O)NCCc2cccs2)CC3)CC1 (stereo not drawn)
- Potency [1]: inconclusive: 28.2 µM [inhibitor, partial curve]

SMILES: Clc1cccc(N2CCN(Cc3ccc(Br)o3)CC2)c1
- Potency [1]: inconclusive: 3.98 µM [inhibitor, full curve, poor fit]

SMILES: COc1ccc(NC2CC(=O)N(C(C)C)C2=O)cc1 (stereo not drawn)
- Potency [1]: active: 3.98 µM

SMILES: CCc1ccc(OCC(=O)NC2CCCCC2)c(Br)c1
- Potency [1]: inactive

SMILES: CCN1CCN(c2nc(Nc3ccccc3)c3nccnc3n2)CC1
- Potency [1]: inactive

SMILES: Cc1ccc(CNC(=O)C2CCCN(c3cnn(Cc4ccccc4)c(=O)c3)C2)o1 (stereo not drawn)
- Potency [1]: inconclusive: 10 µM [inhibitor, partial curve]

SMILES: CSCC[C@H](NC(=O)[C@@H]1Cc2c([nH]c3ccccc23)C2c3ccccc3C(=O)N21)C(=O)NCC1CCCO1 (stereo partly drawn)
- Potency [1]: inconclusive: 44.7 µM [inhibitor, partial curve, poor fit]

SMILES: Cc1ccc(-c2nn(-c3ccccc3)cc2CN(Cc2ccccc2)C(=O)CCC(=O)O)o1
- Potency [1]: inconclusive: 126 µM [inhibitor, partial curve, poor fit]

SMILES: O=C(COc1ccc2c(=O)c(Oc3ccc(-c4ccccc4)cc3)coc2c1)NCc1ccccc1
- Potency [1]: inactive

SMILES: COc1cc(OC)c(NC(=O)c2nnn(Cc3ccc(C)cc3)c2N)cc1Cl
- Potency [1]: inactive

SMILES: O=C(NC(=S)Nc1ccc(N2CCOCC2)c(Cl)c1)c1cccs1
- Potency [1]: inconclusive: 10 µM [inhibitor, partial curve, poor fit]

SMILES: NC1(C(=O)O)CSSC1
- Potency [1]: inconclusive: 5.62 µM [inhibitor, full curve, poor fit]

SMILES: O=C(O)C(Cc1ccccc1)NC(=O)C12CC3CC(CC(C3)C1)C2 (stereo not drawn)
- Potency [1]: inconclusive: 22.4 µM [inhibitor, full curve, poor fit]

SMILES: CSc1oc(-c2ccco2)nc1S(=O)(=O)c1ccc(C)cc1
- Potency [1]: inconclusive: 56.2 µM [inhibitor, partial curve, poor fit]

SMILES: CC1=CC(C)(C)N2C(=O)C3(C(C#N)=C(N)Oc4cc(O)ccc43)c3c(C)c(C)cc1c32 (stereo not drawn)
- Potency [1]: inconclusive: 70.8 µM [inhibitor, partial curve, poor fit]

SMILES: O=C1NC[C@@H](CCC(=O)N2CCN(c3ccccc3)CC2)N2C[C@@H](NCc3ccc(CO)o3)C[C@@H]12
- Potency [1]: inactive

SMILES: Cc1cccc(NC(=O)c2cc(=O)c3cc(C)ccc3o2)c1
- Potency [1]: inconclusive: 63.1 µM [inhibitor, partial curve, poor fit]

SMILES: COc1ccc(CN2C(=O)CO[C@H](c3ccc(NS(=O)(=O)c4ccc(F)cc4)cc3)[C@H]2CO)cc1
- Potency [1]: inconclusive: 44.7 µM [inhibitor, partial curve, poor fit]

SMILES: O=C1NC2(CCC3(CC2)OCCO3)NN1c1ccc(Cl)cc1
- Potency [1]: inconclusive: 44.7 µM [inhibitor, partial curve, poor fit]

SMILES: CCCCCN1CCN(c2nc3c(c(=O)[nH]c(=O)n3C)n2Cc2ccccc2C)CC1
- Potency [1]: inconclusive: 20 µM [inhibitor, full curve]

SMILES: COc1ccc2[nH]c3c(c2c1)CCN(C)C31CCN(C(=O)c2nccc3ccccc23)CC1
- Potency [1]: inactive

SMILES: COc1cc(C)ccc1OC(=O)C(C)Oc1ccc(Cl)cc1Cl (stereo not drawn)
- Potency [1]: inconclusive: 1 µM [inhibitor, full curve, poor fit]

SMILES: Cc1ccc(S(=O)(=O)/N=C/c2c(O)ccc3ccccc23)cc1
- Potency [1]: inconclusive: 0.631 µM [inhibitor, partial curve, poor fit]

SMILES: COc1ccc(CNC(=O)Cc2c(C)c3ccc(OC(C)=O)cc3oc2=O)cc1OC
- Potency [1]: inactive

SMILES: COc1ccc(C(=O)Oc2cccc(/C=N/NC(N)=S)c2)cc1
- Potency [1]: active: 39.8 µM

SMILES: O=C(Cn1ncc2c3ccccc3n(Cc3ccc(Cl)cc3)c2c1=O)N1CCCCCC1
- Potency [1]: inconclusive: 100 µM [inhibitor, single point]

SMILES: COc1ccc(OC)c2nc3c(C(=O)NCCN(C)C)cccc3nc12
- Potency [1]: inactive

SMILES: C=CCC(C)(NCc1ccccc1)c1ccccc1 (stereo not drawn)
- activity change, negative = inhibition [1]: inconclusive: -38.2% [inhibitor]
- activity change, negative = inhibition (at 108 µM (top of the series)): inactive: -10.2%

SMILES: N[C@@H](Cn1ccc(=O)n(Cc2ccccc2C(=O)O)c1=O)C(=O)O
- Potency [1]: inconclusive: 1 µM [inhibitor, full curve, poor fit]

SMILES: O=C(Cn1nnc2sc3c(c2c1=O)CCCC3)OC1CCCC1
- Potency [1]: inconclusive: 31.6 µM [inhibitor, partial curve, poor fit]

SMILES: Cc1ccc(S(=O)(=O)NN=Cc2ccc(N3CCOCC3)cc2)cc1[N+](=O)[O-]
- Potency [1]: inconclusive: 39.8 µM [inhibitor, partial curve, poor fit]

SMILES: COc1ccc(Br)cc1CNC(=O)Cn1c(=O)c2cccn2c2ccc(F)cc21
- Potency [1]: inconclusive: 89.1 µM [inhibitor, partial curve, poor fit]

SMILES: NNC(=O)C(=O)Nc1ccc(O)cc1
- Potency [1]: inactive

SMILES: Cc1ccc(S(=O)(=O)N(CC(=O)Nc2ccccc2C(=O)O)c2cccc(Cl)c2C)cc1
- Potency [1]: inconclusive: 44.7 µM [inhibitor, partial curve, poor fit]

SMILES: CSCCC(NS(=O)(=O)c1ccc2c(c1)OCCO2)C(=O)N(C)Cc1ccc(F)cc1 (stereo not drawn)
- Potency [1]: inactive

SMILES: CC(C(c1ccc2c(c1)OCO2)c1c(N)n(C)c(=O)n(C)c1=O)[N+](=O)[O-] (stereo not drawn)
- Potency [1]: inconclusive: 112 µM [inhibitor, partial curve, poor fit]

SMILES: COc1ccc(O)c(/C=N/NC(=S)NCCc2ccccc2)c1
- Potency [1]: inconclusive: 31.6 µM [inhibitor, partial curve, poor fit]

SMILES: CCC(C)c1ccc(OCC(=O)Nc2cccc(-c3nc4ncccc4o3)c2)cc1 (stereo not drawn)
- Potency [1]: inactive

SMILES: CCCCN=CN1c2cc(OC)ccc2-n2cccc2C1c1ccccc1 (stereo not drawn)
- Potency [1]: inconclusive: 89.1 µM [inhibitor, single point]

SMILES: Cc1ccc(S(=O)(=O)NCCC2=CCCCC2)cc1
- Potency [1]: inconclusive: 12.6 µM [inhibitor, full curve, poor fit]

SMILES: CSc1ccc(CNC(=O)CCn2ccc3cc(S(=O)(=O)N4CCC(C)CC4)ccc32)cc1
- Potency [1]: inconclusive: 112 µM [inhibitor, single point]

SMILES: O=C(NC(=S)NCc1ccc(Cl)cc1)c1ccco1
- Potency [1]: inconclusive: 39.8 µM [inhibitor, partial curve]

SMILES: Cc1ccc(S(=O)(=O)Nc2ccc3c(c2)nc2n3CCN(Cc3ccccc3)C2)cc1
- Potency [1]: inactive

SMILES: Cc1ccc(NC(=O)c2ncoc2-c2ccc(C)o2)c(Cl)c1
- Potency [1]: inactive

SMILES: CC1=C(c2ccc(C)cc2)S(=O)(=O)N(Cc2ccc(C(=O)NCc3cccc(C)c3)cc2)C1=O
- Potency [1]: inactive

SMILES: COc1cccc(C2CC(c3ccc(Cl)cc3Cl)n3nc(N)nc3N2)c1 (stereo not drawn)
- Potency [1]: inconclusive: 126 µM [inhibitor, partial curve, poor fit]

SMILES: CCOC(=O)Cn1c(=O)c2c(nc(-n3nc(C)cc3C)n2CC)n(C)c1=O
- Potency [1]: inactive

SMILES: CCN(CC)C(=O)C1=C(C)N(Cc2ccccc2)C(=O)C(CC(=O)NCCCCc2ccccc2)C1 (stereo not drawn)
- Potency [1]: inactive

SMILES: CCC(C)[C@H](NC(=O)N1CC(=O)Nc2ccccc21)C(=O)N1CCC[C@H]1C(=O)O (stereo partly drawn)
- Potency [1]: inconclusive: 126 µM [inhibitor, single point]

SMILES: Cc1ccc(S(=O)(=O)NCc2ccc(C(=O)N3CCN(c4cc(C)ccc4C)CC3)cc2)cc1
- Potency [1]: inconclusive: 11.2 µM [inhibitor, full curve]

SMILES: Cc1cccc(NC(=O)CN2C(=O)N/C(=C/c3cc(C)n(C)c3C)C2=O)c1
- Potency [1]: inactive

SMILES: C[C@@H](NC(=O)Cc1ccccc1)c1onc(-c2cccnc2)c1C(=O)O
- Potency [1]: inconclusive: 20 µM [inhibitor, full curve, poor fit]

SMILES: Cc1cc(N2CCN(Cc3nc(-c4cccc(Cl)c4)no3)CC2)cc(C)n1
- Potency [1]: inconclusive: 8.91 µM [inhibitor, full curve, poor fit]

SMILES: O=C(CN(Cc1cccs1)CC1CCCO1)Nc1cccc(F)c1 (stereo not drawn)
- Potency [1]: inactive

SMILES: COCCN(Cc1c(C)nn(C)c1C)CC1[C@H]2CNC[C@@H]12 (stereo partly drawn)
- Potency [1]: inconclusive: 10 µM [inhibitor, partial curve, poor fit]

SMILES: O=C(CCNS(=O)(=O)c1ccccc1)OCc1nnc(-c2ccccc2)o1
- Potency [1]: inactive

SMILES: Cc1[nH]c2c(ccc3ccccc32)c1C1C(CCN)C1(C)C (stereo not drawn)
- Potency [1]: inconclusive: 126 µM [inhibitor, single point]

SMILES: CCCC1NC(=O)N(Cc2cc(F)cc3cccnc23)C1=O (stereo not drawn)
- Potency [1]: inconclusive: 35.5 µM [inhibitor, single point]
